Data reported in article PMC3380004.
These are yes or no findings as the source states them, for the method shown. In cells and extracts the contact can be indirect. These calls come from enrichment with a bait or labelling near it, and not all partners need be listed. Where a sequence is shown, tags or fusion partners need not be part of it.

Chains of the proteins cited; added tags and fusions are not shown.
UniProt Q9EPN1: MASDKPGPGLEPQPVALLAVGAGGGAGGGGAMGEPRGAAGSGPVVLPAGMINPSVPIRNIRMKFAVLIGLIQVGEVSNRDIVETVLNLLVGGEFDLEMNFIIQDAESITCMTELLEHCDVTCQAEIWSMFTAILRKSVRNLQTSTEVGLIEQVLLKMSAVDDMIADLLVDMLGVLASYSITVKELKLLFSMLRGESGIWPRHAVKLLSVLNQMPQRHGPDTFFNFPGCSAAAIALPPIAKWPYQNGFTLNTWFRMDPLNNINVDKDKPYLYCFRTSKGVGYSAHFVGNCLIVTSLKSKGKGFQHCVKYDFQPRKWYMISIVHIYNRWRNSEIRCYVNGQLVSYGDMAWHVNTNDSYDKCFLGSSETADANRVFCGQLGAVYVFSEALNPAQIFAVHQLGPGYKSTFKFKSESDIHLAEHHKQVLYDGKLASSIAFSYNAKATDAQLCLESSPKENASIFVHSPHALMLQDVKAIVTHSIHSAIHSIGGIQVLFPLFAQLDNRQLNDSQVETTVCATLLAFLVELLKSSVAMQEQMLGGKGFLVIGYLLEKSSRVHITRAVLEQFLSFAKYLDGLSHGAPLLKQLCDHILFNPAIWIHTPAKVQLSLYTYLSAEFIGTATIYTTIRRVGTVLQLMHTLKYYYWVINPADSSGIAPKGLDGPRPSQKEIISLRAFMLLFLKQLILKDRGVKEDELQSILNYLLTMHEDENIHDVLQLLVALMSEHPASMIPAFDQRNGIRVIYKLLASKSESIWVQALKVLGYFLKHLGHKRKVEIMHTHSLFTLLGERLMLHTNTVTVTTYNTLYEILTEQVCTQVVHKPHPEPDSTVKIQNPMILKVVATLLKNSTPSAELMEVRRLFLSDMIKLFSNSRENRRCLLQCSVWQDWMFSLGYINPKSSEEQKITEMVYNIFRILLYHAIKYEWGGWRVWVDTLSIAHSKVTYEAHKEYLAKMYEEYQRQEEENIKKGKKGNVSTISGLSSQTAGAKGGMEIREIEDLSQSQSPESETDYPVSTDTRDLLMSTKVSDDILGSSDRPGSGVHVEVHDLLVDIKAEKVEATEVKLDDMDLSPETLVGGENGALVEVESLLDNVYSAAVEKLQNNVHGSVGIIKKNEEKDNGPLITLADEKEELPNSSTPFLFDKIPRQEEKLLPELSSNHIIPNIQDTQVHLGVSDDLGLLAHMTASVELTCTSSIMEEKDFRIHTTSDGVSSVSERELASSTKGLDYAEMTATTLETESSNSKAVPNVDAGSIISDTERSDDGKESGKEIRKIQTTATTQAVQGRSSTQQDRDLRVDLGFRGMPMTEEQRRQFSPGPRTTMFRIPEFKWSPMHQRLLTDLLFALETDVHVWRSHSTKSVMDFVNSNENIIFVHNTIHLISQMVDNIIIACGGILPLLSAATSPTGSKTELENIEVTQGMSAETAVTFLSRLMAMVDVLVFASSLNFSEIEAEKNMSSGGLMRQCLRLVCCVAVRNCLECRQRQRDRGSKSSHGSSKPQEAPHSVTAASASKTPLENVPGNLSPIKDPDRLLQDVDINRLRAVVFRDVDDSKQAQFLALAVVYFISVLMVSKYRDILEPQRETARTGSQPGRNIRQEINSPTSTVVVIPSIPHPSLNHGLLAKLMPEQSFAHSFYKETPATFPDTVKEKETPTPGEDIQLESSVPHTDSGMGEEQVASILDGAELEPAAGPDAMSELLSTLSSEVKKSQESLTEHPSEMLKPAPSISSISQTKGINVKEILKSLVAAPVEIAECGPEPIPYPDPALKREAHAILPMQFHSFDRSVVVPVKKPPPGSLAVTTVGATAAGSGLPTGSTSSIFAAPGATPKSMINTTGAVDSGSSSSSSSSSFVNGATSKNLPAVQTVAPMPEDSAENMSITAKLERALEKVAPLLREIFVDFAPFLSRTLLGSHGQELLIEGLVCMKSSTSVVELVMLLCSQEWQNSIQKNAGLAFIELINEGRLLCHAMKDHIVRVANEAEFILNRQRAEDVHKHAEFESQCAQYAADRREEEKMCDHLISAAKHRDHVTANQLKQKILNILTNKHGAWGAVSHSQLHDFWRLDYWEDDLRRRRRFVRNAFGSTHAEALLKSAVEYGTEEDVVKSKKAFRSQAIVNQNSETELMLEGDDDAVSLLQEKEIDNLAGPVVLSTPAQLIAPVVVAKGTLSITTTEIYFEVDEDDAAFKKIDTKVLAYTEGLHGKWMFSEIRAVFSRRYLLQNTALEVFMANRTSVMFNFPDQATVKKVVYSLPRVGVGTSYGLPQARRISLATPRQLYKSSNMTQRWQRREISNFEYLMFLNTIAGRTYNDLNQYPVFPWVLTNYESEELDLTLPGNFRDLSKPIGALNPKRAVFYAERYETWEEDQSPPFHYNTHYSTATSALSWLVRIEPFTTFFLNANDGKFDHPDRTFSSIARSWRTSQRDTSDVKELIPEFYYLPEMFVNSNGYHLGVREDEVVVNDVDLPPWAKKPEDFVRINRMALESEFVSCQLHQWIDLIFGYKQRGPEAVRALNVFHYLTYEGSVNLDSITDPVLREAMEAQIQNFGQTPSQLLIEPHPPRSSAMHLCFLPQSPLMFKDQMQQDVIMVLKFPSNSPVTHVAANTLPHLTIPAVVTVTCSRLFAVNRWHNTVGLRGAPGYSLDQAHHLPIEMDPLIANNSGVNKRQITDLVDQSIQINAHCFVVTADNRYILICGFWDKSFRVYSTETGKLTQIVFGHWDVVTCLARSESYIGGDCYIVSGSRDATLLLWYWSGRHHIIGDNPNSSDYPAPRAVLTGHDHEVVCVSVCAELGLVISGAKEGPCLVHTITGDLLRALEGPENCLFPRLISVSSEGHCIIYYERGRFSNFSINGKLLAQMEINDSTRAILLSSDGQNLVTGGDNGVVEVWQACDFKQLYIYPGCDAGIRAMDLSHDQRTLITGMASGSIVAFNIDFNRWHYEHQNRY
UniProt Q6PDL0: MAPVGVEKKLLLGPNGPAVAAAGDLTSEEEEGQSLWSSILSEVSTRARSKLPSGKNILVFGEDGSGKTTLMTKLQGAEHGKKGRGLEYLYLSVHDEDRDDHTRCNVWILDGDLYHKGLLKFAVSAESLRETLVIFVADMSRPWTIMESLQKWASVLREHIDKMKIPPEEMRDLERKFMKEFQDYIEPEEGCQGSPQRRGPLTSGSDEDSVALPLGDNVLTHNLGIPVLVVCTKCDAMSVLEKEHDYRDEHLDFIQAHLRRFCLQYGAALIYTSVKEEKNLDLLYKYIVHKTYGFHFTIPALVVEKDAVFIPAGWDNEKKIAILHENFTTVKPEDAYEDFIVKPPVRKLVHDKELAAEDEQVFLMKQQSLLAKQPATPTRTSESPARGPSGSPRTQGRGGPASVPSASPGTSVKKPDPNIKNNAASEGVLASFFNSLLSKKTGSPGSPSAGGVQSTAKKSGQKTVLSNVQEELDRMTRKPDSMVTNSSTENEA
UniProt O88487: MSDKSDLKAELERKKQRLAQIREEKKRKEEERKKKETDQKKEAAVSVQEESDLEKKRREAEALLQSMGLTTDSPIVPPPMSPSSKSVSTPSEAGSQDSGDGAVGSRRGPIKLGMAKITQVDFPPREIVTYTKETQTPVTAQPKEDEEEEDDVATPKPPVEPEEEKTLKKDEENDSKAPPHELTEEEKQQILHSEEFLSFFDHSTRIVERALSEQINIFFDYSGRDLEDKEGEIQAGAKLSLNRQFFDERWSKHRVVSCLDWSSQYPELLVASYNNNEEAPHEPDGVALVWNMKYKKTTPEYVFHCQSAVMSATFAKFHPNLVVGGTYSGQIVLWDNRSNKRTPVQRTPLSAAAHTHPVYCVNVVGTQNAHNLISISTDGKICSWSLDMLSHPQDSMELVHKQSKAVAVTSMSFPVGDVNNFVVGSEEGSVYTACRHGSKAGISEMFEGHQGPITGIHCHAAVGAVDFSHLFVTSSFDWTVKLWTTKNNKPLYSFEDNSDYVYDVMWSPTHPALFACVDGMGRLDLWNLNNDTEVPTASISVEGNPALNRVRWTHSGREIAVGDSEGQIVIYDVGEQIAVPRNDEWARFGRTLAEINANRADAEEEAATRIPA
UniProt Q64332: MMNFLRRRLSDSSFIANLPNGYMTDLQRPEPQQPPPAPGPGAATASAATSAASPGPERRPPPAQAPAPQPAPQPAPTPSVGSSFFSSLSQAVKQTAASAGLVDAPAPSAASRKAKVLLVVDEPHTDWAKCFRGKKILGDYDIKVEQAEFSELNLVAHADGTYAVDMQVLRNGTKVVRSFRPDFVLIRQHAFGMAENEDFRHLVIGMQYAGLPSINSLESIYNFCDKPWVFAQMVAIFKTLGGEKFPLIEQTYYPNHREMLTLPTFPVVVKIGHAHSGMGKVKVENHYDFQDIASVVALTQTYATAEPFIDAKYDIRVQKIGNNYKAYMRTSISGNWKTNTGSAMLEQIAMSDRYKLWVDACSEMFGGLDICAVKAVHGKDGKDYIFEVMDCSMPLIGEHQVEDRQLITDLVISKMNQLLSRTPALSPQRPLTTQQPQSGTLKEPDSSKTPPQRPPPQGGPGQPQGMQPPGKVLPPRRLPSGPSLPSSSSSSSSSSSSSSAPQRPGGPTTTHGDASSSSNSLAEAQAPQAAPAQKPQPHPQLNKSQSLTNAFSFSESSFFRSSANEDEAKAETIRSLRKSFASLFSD
UniProt P60879: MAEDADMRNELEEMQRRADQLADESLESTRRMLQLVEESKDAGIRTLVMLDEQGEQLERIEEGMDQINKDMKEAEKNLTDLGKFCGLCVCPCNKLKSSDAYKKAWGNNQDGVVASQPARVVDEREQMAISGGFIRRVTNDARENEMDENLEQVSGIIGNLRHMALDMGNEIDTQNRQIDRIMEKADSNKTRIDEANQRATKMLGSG
UniProt Q9Z0H8: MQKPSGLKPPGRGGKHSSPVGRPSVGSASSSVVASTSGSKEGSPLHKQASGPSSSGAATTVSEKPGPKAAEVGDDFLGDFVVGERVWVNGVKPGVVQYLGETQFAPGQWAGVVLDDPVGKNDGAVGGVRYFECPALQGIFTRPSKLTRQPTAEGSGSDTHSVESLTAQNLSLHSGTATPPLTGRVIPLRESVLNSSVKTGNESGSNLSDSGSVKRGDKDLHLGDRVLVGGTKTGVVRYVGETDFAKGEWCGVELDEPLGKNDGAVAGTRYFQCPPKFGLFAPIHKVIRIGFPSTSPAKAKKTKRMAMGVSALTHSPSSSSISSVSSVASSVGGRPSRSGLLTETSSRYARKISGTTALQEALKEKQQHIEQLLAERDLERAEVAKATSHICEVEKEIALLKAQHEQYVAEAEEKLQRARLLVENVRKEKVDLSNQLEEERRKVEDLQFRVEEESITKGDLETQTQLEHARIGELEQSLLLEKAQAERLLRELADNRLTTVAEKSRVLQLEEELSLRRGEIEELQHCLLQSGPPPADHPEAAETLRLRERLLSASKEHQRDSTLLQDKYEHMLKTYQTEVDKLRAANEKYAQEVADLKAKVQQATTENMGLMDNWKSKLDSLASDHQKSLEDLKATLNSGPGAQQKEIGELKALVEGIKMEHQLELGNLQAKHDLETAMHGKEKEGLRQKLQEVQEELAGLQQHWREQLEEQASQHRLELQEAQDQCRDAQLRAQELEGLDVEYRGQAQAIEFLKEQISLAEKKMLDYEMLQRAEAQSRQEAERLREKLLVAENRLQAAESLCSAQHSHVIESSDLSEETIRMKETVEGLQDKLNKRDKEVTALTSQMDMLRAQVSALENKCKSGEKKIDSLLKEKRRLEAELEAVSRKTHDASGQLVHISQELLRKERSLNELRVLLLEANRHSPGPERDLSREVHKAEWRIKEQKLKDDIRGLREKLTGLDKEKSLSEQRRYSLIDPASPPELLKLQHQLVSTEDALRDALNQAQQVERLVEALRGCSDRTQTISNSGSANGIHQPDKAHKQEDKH
UniProt P31324: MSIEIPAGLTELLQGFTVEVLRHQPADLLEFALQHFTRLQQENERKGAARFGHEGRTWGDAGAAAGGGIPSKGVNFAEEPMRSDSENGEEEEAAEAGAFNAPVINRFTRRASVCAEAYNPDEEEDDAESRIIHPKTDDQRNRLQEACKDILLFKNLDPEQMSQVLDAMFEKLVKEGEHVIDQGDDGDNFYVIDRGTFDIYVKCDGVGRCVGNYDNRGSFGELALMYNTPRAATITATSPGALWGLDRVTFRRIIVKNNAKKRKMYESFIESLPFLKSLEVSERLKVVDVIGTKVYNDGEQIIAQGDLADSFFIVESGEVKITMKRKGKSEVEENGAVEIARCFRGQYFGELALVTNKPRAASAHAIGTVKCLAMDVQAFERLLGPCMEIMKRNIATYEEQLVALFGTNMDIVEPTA

B1: ERC protein 2 (protein, UniProt Q6PH08 1-957)
chain: MYGSARTISNLEGSPSRSPRLPRSPRLGHRRTSSGGGGGTGKTLSMENIQSLNAAYATSGPMYLSDHEGVASTTYPKGTMTLGRATNRAVYGGRVTAMGSSPNIASAGLSHTDVLSYTDQHGGLSGSSHHHHHQVPSMLRQVRDSTMLDLQAQLKELQRENDLLRKELDIKDSKLGSSMNSIKTFWSPELKKERVLRKEEAARMSVLKEQMRVSHEENQHLQLTIQALQDELRTQRDLNHLLQQESGNRGAEHFTIELTEENFRRLQAEHDRQAKELFLLRKTLEEMELRIETQKQTLNARDESIKKLLEMLQSKGLPSKSLEDDNERTRRMAEAESQVSHLEVILDQKEKENIHLREELHRRSQLQPEPAKTKALQTVIEMKDTKIASLERNIRDLEDEVQMLKANGVLNTEDREEEIKQIEVYKSHSKFMKTKIDQLKQELSKKESELLALQTKLETLSNQNSDCKQHIEVLKESLTAKEQRAAILQTEVDALRLRLEEKESFLNKKTKQLQDLTEEKGTLAGEIRDMKDMLEVKERKINVLQKKIENLQEQLRDKDKQLTNLKDRVKSLQTDSSNTDTALATLEEALSEKERIIERLKEQRERDDRERLEEIESFRKENKDLKEKVNALQAELTEKESSLIDLKEHASSLASAGLKRDSKLKSLEIAIEQKKEECNKLEAQLKKAHNIEDDSRMNPEFADRLKQLDKEASYYRDECGKAQAEVDRLLEILKEVENEKNDKDKKIAELESLTLRHMKDQNKKVANLKYNQQLEKKKNAQLLEEVRRREDSMVDNSQHLQIEELMNALEKTRQELDATKARLASTQQSLAEKEAHLANLRIERRKQLEEILEMKQEALLAAISEKDANIALLELSASKKKKTQEEVMALKREKDRLVHQLKQQTQNRMKLMADNYDEDHHHYHHHHHHHHHRSPGRSQHSNHRPSPDQDDEEGIWA
B2: Sjogren syndrome/scleroderma autoantigen 1 homolog (protein, UniProt P56873 1-199)
chain: MALNGADVDDFTWEPPTEAETKVLQARRERQDRISRLMGDYLLRGYRMLGDTCADCGTILLQDKQRKIYCVACQELDSDVDKDNPALNAQAALSQAREHQLASSTEPASSSRPPSQPPVPRPEHCEGAAAGLKAAQAPPLPAAPPNTDAVASTQTALLQKLTWASVELGSSTSLETSIQLCGLIRACAEALGSLKQLDH
B3: Potassium voltage-gated channel subfamily D member 2 (protein, UniProt Q9Z0V2 1-630)
chain: MAAGVAAWLPFARAAAIGWMPVASGPMPAPPRQERKRTQDALIVLNVSGTRFQTWQDTLERYPDTLLGSSERDFFYHPETQQYFFDRDPDIFRHILNFYRTGKLHYPRHECISAYDEELAFFGLIPEIIGDCCYEEYKDRRRENAERLQDDADTDNTGESALPTMTARQRVWRAFENPHTSTMALVFYYVTGFFIAVSVIANVVETVPCGSSPGHIKELPCGERYAVAFFCLDTACVMIFTVEYLLRLAAAPSRYRFVRSVMSIIDVVAILPYYIGLVMTDNEDVSGAFVTLRVFRVFRIFKFSRHSQGLRILGYTLKSCASELGFLLFSLTMAIIIFATVMFYAEKGSSASKFTSIPAAFWYTIVTMTTLGYGDMVPKTIAGKIFGSICSLSGVLVIALPVPVIVSNFSRIYHQNQRADKRRAQKKARLARIRAAKSGSANAYMQSKRNGLLSNQLQSSEDEPAFISKSGSSFETQHHHLLHCLEKTTNHEFVDEQVFEESCMEVATVNRPSSHSPSLSSQQGVTSTCCSRRHKKTFRIPNANVSGSHRGSVQELSTIQIRCVERTPLSNSRSSLNAKMEECVKLNCEQPYVTTAIISIPTPPVTTPEGDDRPESPEYSGGNIVRVSAL
B4: Heat shock 70 kDa protein 12A (protein, UniProt Q8K0U4 1-675)
chain: MADKEAGGGDAGPRETAPTSTYSSPARSLGDTGITPLSPSHILNDADPVSEQQTFLVVVAIDFGTTSSGYAYSFTKEPECIHVMRRWEGGDPGVSNQKTPTTILLTPERKFHSFGYAARDFYHDLDPSEAKQWLYLEKFKMKLHTTGDLTMDTDLTAANGKKVKALEIFAYALQYFKEQALKELSDQAGSDFENSDVRWVITVPAIWKQPAKQFMREAAYQAGLASPENSEQLIIALEPEAASIYCRKLRLHQMIELSSKAVVNGYSASDTVGAGFAQAKEHVRRNRQSRTFLVENVIGEIWSELEEGDKYVVVDSGGGTVDLTVHQIRLPEGHLKELYKATGGPYGSLGVDYEFEKLLCKIFGEDFIEQFKIKRPAAWVDLMIAFESRKRAAAPDRTNPLNITLPFSFIDYYKKFRGHSVEHALRKSNVDFVKWSSQGMLRMSPDAMNALFKPTIDSIIEHLRDLFQKPEVSTVKFLFLVGGFAEAPLLQQAVQTAFGDKCRIIIPQDVGLTILKGAVLFGLDPAVIKVRRSPLTYGVGVLNRYVEGKHPPEKLLVKDGTRWCTDVFDKFISADQSVALGELVKRSYTPAKPSQLVIIINIYSSEHDNVSFITDPGVKKCGTLRLDLTGSGGTAVPARREIQTIMQFGDTEIKATAVDITTSKSVKVGIDFLNY
B5: Synaptogyrin-1 (protein, UniProt O55100 1-234)
chain: MEGGAYGAGKAGGAFDPYTLVRQPHTILRVVSWVFSIVVFGSIVNEGYLNNPEEEEEFCIYNRNPNACSYGVTVGVLAFLTCLLYLALDVYFPQISSVKDRKKAVLSDIGVSAFWAFFWFVGFCFLANQWQVSKPKDNPLNEGTDAARAAIAFSFFSIFTWAGQAVLAFQRYQIGADSALFSQDYMDPSQDSSMPYAPYVEPSAGSDPAGMGGTYQHPANAFDAEPQGYQSQGY
B6: Dihydrolipoyl dehydrogenase, mitochondrial (protein, UniProt O08749 36-509)
chain: ADQPIEADVTVIGSGPGGYVAAIKSAQLGFKTVCIEKNETLGGTCLNVGCIPSKALLNNSHYYHMAHGKDFASRGIEIPEVRLNLEKMMEQKHSAVKALTGGIAHLFKQNKVVHVNGFGKITGKNQVTATKADGSTQVIDTKNILVATGSEVTPFPGITIDEDTIVSSTGALSLKKVPEKLVVIGAGVIGVELGSVWQRLGADVTAVEFLGHVGGIGIDMEISKNFQRILQRQGFKFKLNTKVTGATKKSDGKIDVSVEAASGGKAEVITCDVLLVCIGRRPFTQNLGLEELGIELDPKGRIPVNNRFQTKIPNIYAIGDVVAGPMLAHKAEDEGIICVEGMAGGAVHIDYNCVPSVIYTHPEVAWVGKSEEQLKEEGIEFKIGKFPFAANSRAKTNADTDGMVKILGHKSTDRVLGAHILGPGAGEMVNEAALALEYGASCEDIARVCHAHPTLSEAFREANLAAAFGKPINF
B7: Mitochondrial glutamate carrier 1 (protein, UniProt Q9D6M3 1-323)
chain: MADKQISLPAKLINGGIAGLIGVTCVFPIDLAKTRLQNQQNGQRMYASMSDCLIKTIRSEGYFGMYRGAAVNLTLVTPEKAIKLAANDFFRHQLSKDGQKLTLPKEMLAGCGAGTCQVIVTTPMEMLKIQLQDAGRIAAQRKILAAQAQLSAQGGAQPSVEAPAPPRPTATQLTRDLLRNHGIAGLYKGLGATLLRDVPFSIVYFPLFANLNQLGRPSSEEKSPFYVSFLAGCVAGSAAAVAVNPCDVVKTRLQSLERGVNEDTYSGFLDCARKIWRHEGPSAFLKGAYCRALVIAPLFGIAQVVYFLGIAESLLGLLQEPQA
B8: 6-Phosphofructokinase type C (protein, UniProt Q9WUA3 1-784)
chain: MSDLDSSSSSAYPKYLEHLSGDGKAIGVLTSGGDAQGMNAAVRAVVRMGIYTGAKVYFIYEGYQGLVDGGSNIVEAKWDCVSSILQVGGTIIGSARCKAFRSREGRLKAACNLARLGITNLCVIGGDGSLTGANLFRKEWSGLLEELARNGDIDNDTVQKYSYLNVVGMVGSIDNDFCGTDMTIGTDSALHRIIEVVDAIMTTAQSHQRTFVLEVMGRHCGYLALVSALTCGADWVFLPESPPEEDWEENMCLKLSENRARKKRLNIIIVSEGAIDMQNKPITSEKIKELVVKNLGFDTRVTILGHVQRGGTPSAFDRILASRMGVEAVIALLEATPETPACVVSLRGNQAVRLPLMECVQMTQDVQKAMDERRFKEAVKLRGRRFEGNLNTYKRLAIKLPDEKIVKSNCNVAVINVGAPAAGMNAAVRSAVRVGIADGHKMFAIYDGFEGFANGQIKEIGWADVGGWTGQGGSILGTKRTLPGKYLEKIAEQMHSHSINALLIIGGFEAYLGLLELAAAREKHEAFCVPMVMVPATVSNNVPGSDFSIGADTALNTITDTCDRIKQSASGTKRRVFIIETMGGYCGYLANMGALAAGADAAYIFEEPFDIGDLQSNVVHLTEKMKTSIQRGLVLRNESCSVNYTTDFIYQLYSEEGKGVFDCRKNVLGHMQQGGAPSPFDRNFGTKISAKAMEWISAKLKGSQGTGKKFVSDDSICVLGICKRDLLFQPVAELKKVTDFEHRIPKEQWWLKLRPIMKILAKYEASYDMSDSGKLESLQHHEEL
B9: Striatin (protein, UniProt O55106 1-780)
chain: MDEQAGPGVFFSNNHPGAGGAKGLGPLAEAAAAGDGAAAAGAARAQYSLPGILHFLQHEWARFEVERAQWEVERAELQAQIAFLQGERKGQENLKKDLVRRIKMLEYALKQERAKYHKLKYGTELNQGDMKPPSYDSDEGNETEVQPQQNSQLMWKQGRQLLRQYLQEVGYTDTILDVKSKRVRALLGFSSDVTDREDDKNQDSVINGTEAEVKETAMIGKSELTDSASVLDNFKFLESAAADVSDEDEDEDTDGRAKSVIDTSTIVRKKALPDTSEDRDTKEALKEFDFLVTSEEGDNESRSAGDGTDWEKEDQCLTPEAWNVDQGVISKLKEQYKKERKGKKGVKRPNRSKLQDMLANLRDVDELPSLQPSVGSPSRPSSSRLPEQELSRADEVEALTFPPSSGKSFIMGADEALESELGLGELAGLTVANEADSLAYDIANNKDALRKTWNPKFTLRSHFDGIRALAFHPIEPVLITASEDHTLKMWNLQKTAPAKKSTSLDVEPIYTFRAHKGPVLCVVMSSNGEQCYSGGTDGRIQSWSTTNPNVDPYDAYDPSVLRGPLLGHTDAVWGLAYSAAHQRLLSCSADGTLRLWNTTEVAPALSVFNDNQELGIPASVDLVSSDPSHMVASFSKGYTSIFNMETQQRVLTLESNVDSTSSSSCQINRVISHPTLPISITAHEDRHIKFYDNNTGKLIHSMVAHLEAVTSLAVDPNGLYLMSGSHDCSIRLWNLESKTCIQEFTAHRKKFEESIHDVAFHPSKCYIASAGADALAKVFV

The molecules below were run against Neurobeachin (mouse (endogenous in mouse brain)) (UniProt Q9EPN1) (assay: affinity purification with mass spectrometry; IP with α-Nbea antibody from the P2+microsomes fraction of P84 mouse brain solubilised with 1% n-Dodecyl β-D-maltoside (DDM), protein A/G agarose, 4°C; controls: empty beads, E18 KO IP; LTQ-Orbitrap).

Row | binding | Molecule
1 | binds | Tubulin, alpha-4A chain (from UniProt P68368 1-448)
2 | binds | Cytoplasmic dynein 1 light intermediate chain 2 (from UniProt Q6PDL0 1-492)
3 | binds | Cytoplasmic dynein 1 intermediate chain 2 (from UniProt O88487 1-612)
4 | binds | Tubulin beta-4A chain (from UniProt Q9D6F9 1-444)
5 | binds | Excitatory amino acid transporter 2 (from UniProt P43006 1-572)
6 | binds | Synapsin-2; Synapsin II (from UniProt Q64332 1-586)
7 | binds | Synaptosomal-associated protein 25 (from UniProt P60879 1-206)
8 | binds | CAP-Gly domain-containing linker protein 2 (from UniProt Q9Z0H8 1-1047)
9 | binds | cAMP-dependent protein kinase type II-beta regulatory subunit (from UniProt P31324 1-416)
10 | binds | B1
11 | binds | B2
12 | binds | B3
13 | binds | B4
14 | binds | B5
15 | binds | B6
16 | binds | B7
17 | binds | B8
18 | binds | B9
